Measurements reported in PubChem BioAssay AID256 (DTP/NCI, 2004).
The list shows only some results of the screen, not a fair sample: it gathers tests that were run many times, whatever their T/C, doses with no T/C, and many T/C values between a quarter and a half above the control. Other doses and runs of a compound stand elsewhere. T/C: endpoint of the treated group in % of that of the vehicle group. Some doses have a count of surviving animals in place of a T/C: the source holds a T/C of zero for them, seemingly a mark for toxic or unscored doses. Some doses without a T/C left all or most animals alive at the check, yet need not have been tolerated: the source hardly ever lists a survival T/C far under the control, and the zero likely stands for such cases as well. Counts of survivors are from the toxicity check (mostly the fifth day) where no day follows; animals may have died later. Schedule codes are those of the source, read here as Q, the interval in days (D) or hours (H), X, the number of doses. Some entries hold several experiments; the values are given in rising order. For survival time, the PubChem record calls one and a half times the control and up active, and a quarter to a half above the control has no call in these data; cut-offs in other NCI protocols can differ.

Tested on: CD2F1 mice, L1210 leukemia ip, survival T/C
Test: NCI In Vivo Anticancer Drug Screen. Data for tumor model L1210 Leukemia (intraperitoneal) in CD2F1 (CDF1) mice
Conditions: higher T/C = longer survival
Summary of the method: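 In this screen, transplantable tumors were grown in mice given either the compound or its vehicle. Results were expressed as the treated measurement relative to the control measurement.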

[1] = T/C endpoint: mean survival time, dose: 100.0 mg/kg/injection, schedule: Q04DX003 (ip), vehicle: saline with Tween-80
[2] = T/C endpoint: mean survival time, dose: 200.0 mg/kg/injection, schedule: Q04DX003 (ip), vehicle: saline with Tween-80
[3] = T/C endpoint: mean survival time, dose: 400.0 mg/kg/injection, schedule: Q04DX003 (ip), vehicle: saline with Tween-80
[4] = T/C endpoint: mean survival time, dose: 400.0 mg/kg/injection, schedule: Q01DX009 (ip), vehicle: saline with Tween-80
[5] = T/C endpoint: mean survival time, dose: 25.0 mg/kg/injection, schedule: Q01DX009 (ip), vehicle: water

Q: How did the survivor count (T/C endpoint: mean survival time, dose: 200.0 mg/kg/injection, schedule: Q04DX003 (ip), vehicle: Klucel (hydroxypropylcellulose) (HPC)) turn out when `CC(=O)NCC1(c2ccccc2)CCN(CCCC(=O)c2ccc(F)cc2)CC1` was run?
A: 6 of 6

Q: With `O=C(O)c1ccc([As](=O)(O)O)cc1` as the compound, how does the survivor count (T/C endpoint: mean survival time, dose: 50.0 mg/kg/injection, schedule: Q01DX009 (ip), vehicle: Klucel (hydroxypropylcellulose) (HPC)) read?
A: 0 of 3

Q: And the survivor count (T/C endpoint: mean survival time, dose: 100.0 mg/kg/injection, schedule: Q01DX009 (ip), vehicle: Klucel (hydroxypropylcellulose) (HPC))?
A: 0 of 3

Q: Which results are given for `O=C(CCOP(=O)(N1CC1)N1CC1)OCc1ccccc1`?
A: survivor count (T/C endpoint: mean survival time, dose: 62.5 mg/kg/injection, schedule: Q01DX001 (ip), vehicle: Klucel (hydroxypropylcellulose) (HPC)): 2 of 6 and 3 of 6; survivor count (T/C endpoint: mean survival time, dose: 125.0 mg/kg/injection, schedule: Q01DX001 (ip), vehicle: Klucel (hydroxypropylcellulose) (HPC)): 0 of 6; survivor count (T/C endpoint: mean survival time, dose: 250.0 mg/kg/injection, schedule: Q01DX001 (ip), vehicle: Klucel (hydroxypropylcellulose) (HPC)): 0 of 6; survivor count (T/C endpoint: mean survival time, dose: 500.0 mg/kg/injection, schedule: Q01DX001 (ip), vehicle: Klucel (hydroxypropylcellulose) (HPC)): 0 of 6; survivor count (T/C endpoint: mean survival time, dose: 1000.0 mg/kg/injection, schedule: Q01DX001 (ip), vehicle: Klucel (hydroxypropylcellulose) (HPC)): 0 of 6

Q: With `Nc1nc(N)c2c(ccc3c2ccn3Cc2cccc([N+](=O)[O-])c2)n1` as the compound, how does the T/C (T/C endpoint: median survival time, dose: 6.25 mg/kg/injection, schedule: Q01DX009 (ip), vehicle: saline with Tween-80) read?
A: 125 and 137 % of control

Q: `O=C1C=C(N2CCOCC2)C(=O)c2nccnc21` was tested. Which survivor count [1] did it give?
A: 0 of 6

Q: Which survivor count [2] does the source give for `CCN(CCS)Cc1ccccc1` here?
A: 3 of 6

Q: And the survivor count [3]?
A: 0 of 6

Q: For `O=C1CC(c2ccc(Br)cc2)N(c2ccc([As](=O)(O)O)cc2)C1=O` (stereo not given), which survivor count (T/C endpoint: mean survival time, dose: 25.0 mg/kg/injection, schedule: Q01DX009 (ip), vehicle: Klucel (hydroxypropylcellulose) (HPC)) is on record?
A: 0 of 6

Q: With `O=C1c2cccc3cc([N+](=O)[O-])cc(c23)C(=O)N1CCN1CCCC1` as the compound, how does the T/C (T/C endpoint: mean survival time, dose: 6.0 mg/kg/injection, schedule: Q01DX009 (ip), vehicle: saline with Tween-80) read?
A: 131 % of control

Q: And the T/C (T/C endpoint: mean survival time, dose: 12.0 mg/kg/injection, schedule: Q01DX009 (ip), vehicle: saline with Tween-80)?
A: 137 % of control

Q: And the survivor count (T/C endpoint: mean survival time, dose: 48.0 mg/kg/injection, schedule: Q01DX009 (ip), vehicle: saline with Tween-80)?
A: 2 of 6

Q: And the T/C (T/C endpoint: median survival time, dose: 25.0 mg/kg/injection, schedule: Q01DX009 (ip), vehicle: saline with Tween-80)?
A: 130 and 140 % of control

Q: And the T/C (T/C endpoint: median survival time, dose: 50.0 mg/kg/injection, schedule: Q01DX009 (ip), vehicle: saline with Tween-80)?
A: 140 % of control

Q: How did the survivor count (T/C endpoint: mean survival time, dose: 75.0 mg/kg/injection, schedule: Q01DX001 (ip), vehicle: saline) turn out when `CCCCCCCC/C=C\CCCCCCCC(=O)N1CC[N+](C)(C)CC1` was run?
A: 0 of 6

Q: And the survivor count (T/C endpoint: mean survival time, dose: 150.0 mg/kg/injection, schedule: Q01DX001 (ip), vehicle: saline)?
A: 0 of 6

Q: And the survivor count (T/C endpoint: mean survival time, dose: 300.0 mg/kg/injection, schedule: Q01DX001 (ip), vehicle: saline)?
A: 0 of 6

Q: `CNC(=O)/C=C/C1=CN2C(=O)c3ccc(C)c(O)c3NC(OC)C2C1` (stereo not given) was tested. Which T/C (T/C endpoint: mean survival time, dose: 0.2 mg/kg/injection, schedule: Q01DX009 (ip), vehicle: saline) did it give?
A: 129 % of control

Q: What about the survivor count (T/C endpoint: mean survival time, dose: 0.4 mg/kg/injection, schedule: Q01DX009 (ip), vehicle: saline) of the same compound?
A: 2 of 10 and 6 of 6

Q: `O=C(C=C(C(F)(F)F)C(F)(F)F)c1cccc(C(F)(F)F)c1` was tested. Which survivor count [1] did it give?
A: 5 of 6

Q: With `Clc1ccc(C[n+]2ccccc2)cc1Cl` as the compound, how does the survivor count (T/C endpoint: mean survival time, dose: 40.0 mg/kg/injection, schedule: Q04DX003 (ip), vehicle: saline) read?
A: 2 of 6

Q: How did the survivor count (T/C endpoint: mean survival time, dose: 400.0 mg/kg/injection, schedule: Q01DX001 (ip), vehicle: saline with Tween-80) turn out when `O=C(O)c1ccccc1F` was run?
A: 2 of 6

Q: `c1ccc(CCNCc2ccccc2)cc1` was tested. Which survivor count [2] did it give?
A: 1 of 6

Q: `C1CCC2(CC1)NCCO2` was tested. Which survivor count (T/C endpoint: mean survival time, dose: 400.0 mg/kg/injection, schedule: Q01DX009 (ip), vehicle: saline sonified) did it give?
A: 4 of 6

Q: For `COc1cc(-c2ccc(N=Nc3c(O)ccc4ccccc34)c(OC)c2)ccc1N=Nc1ccc2c(S(=O)(=O)O)cc(S(=O)(=O)O)c(N)c2c1O`, which survivor count (T/C endpoint: mean survival time, dose: 400.0 mg/kg/injection, schedule: Q04DX003 (ip), vehicle: saline) is on record?
A: 3 of 6

Q: For `COCC1OC2OC3C(COC)OC(OC4C(COC)OC(OC5C(COC)OC(OC6C(COC)OC(OC7C(COC)OC(OC8C(COC)OC(OC1C(O)C2O)C(O)C8O)C(O)C7O)C(O)C6O)C(O)C5O)C(O)C4O)C(O)C3O` (stereo not given) (tested in a mixture with another compound), which survivor count (T/C endpoint: mean survival time, dose: 800.0 mg/kg/injection, schedule: Q01DX009 (ip), vehicle: Klucel (hydroxypropylcellulose) (HPC)) is on record?
A: 2 of 6

Q: With `COc1ccc(C(=O)/C=C/c2cccc3ccccc23)cc1` as the compound, how does the survivor count (T/C endpoint: mean survival time, dose: 100.0 mg/kg/injection, schedule: Q01DX009 (ip), vehicle: saline with Tween-80) read?
A: 3 of 3

Q: What about the survivor count (T/C endpoint: mean survival time, dose: 200.0 mg/kg/injection, schedule: Q01DX009 (ip), vehicle: saline with Tween-80) of the same compound?
A: 3 of 3

Q: And the survivor count [4]?
A: 2 of 3

Q: Which survivor count [2] does the source give for `CCCCn1c2ccccc2c2ccccc21` here?
A: 6 of 6

Q: For `N=c1c2cnn(C3OC(CO)C(O)C3O)c2ncn1N` (stereo not given), which T/C [5] is on record?
A: 126 % of control

Q: What about the survivor count [5] of the same compound?
A: 6 of 6

Q: And the survivor count (T/C endpoint: mean survival time, dose: 50.0 mg/kg/injection, schedule: Q01DX009 (ip), vehicle: water)?
A: 5 of 6

Q: And the survivor count (T/C endpoint: mean survival time, dose: 100.0 mg/kg/injection, schedule: Q01DX009 (ip), vehicle: water)?
A: 3 of 5

Q: And the survivor count (T/C endpoint: mean survival time, dose: 200.0 mg/kg/injection, schedule: Q01DX009 (ip), vehicle: water)?
A: 0 of 5

Q: And the survivor count (T/C endpoint: mean survival time, dose: 400.0 mg/kg/injection, schedule: Q01DX009 (ip), vehicle: water)?
A: 0 of 5

Q: Which survivor count [2] does the source give for `CC(=O)Nc1ccc(SC(=O)N(C)C)cc1` here?
A: 2 of 6

Q: What about the survivor count [3] of the same compound?
A: 0 of 6

Q: `Clc1cccc(-c2nc3ccccc3c3ccccc23)c1` was tested. Which survivor count [2] did it give?
A: 6 of 6

Q: Which results are given for `Cc1nc2c(O)cccn2c(=O)c1Cl`?
A: survivor count [2]: 6 of 6; survivor count [3]: 4 of 6

Q: How did the survivor count (T/C endpoint: mean survival time, dose: 400.0 mg/kg/injection, schedule: Q01DX001 (ip), vehicle: saline) turn out when `N/N=C(\N)c1ccccc1` was run?
A: 0 of 6

Q: Which results are given for `O=C(C[n+]1ccccc1/C=N/O)c1ccccc1`?
A: survivor count [1]: 5 of 6; survivor count [2]: 0 of 6

Q: Which survivor count (T/C endpoint: mean survival time, dose: 100.0 mg/kg/injection, schedule: Q01DX001 (ip), vehicle: saline with Tween-80) does the source give for `CCCCCCCCCC(=O)NC(=S)Nc1c(C)cccc1C` here?
A: 6 of 6

Q: And the survivor count [4]?
A: 3 of 6

Q: Which survivor count [4] does the source give for `O=C(c1ccccc1)C(C(O)CCl)C(O)(C(F)(F)F)C(F)(F)F` (stereo not given) here?
A: 4 of 6

Q: For `C=CCNC(=O)OCC`, which survivor count [4] is on record?
A: 4 of 6

Q: How did the T/C (T/C endpoint: mean survival time, dose: 75.0 mg/kg/injection, schedule: Q04DX003 (ip), vehicle: saline with Tween-80) turn out when `CCCC(Sc1nc(N)nc2nc[nH]c12)C(=O)O` (stereo not given) was run?
A: 131 % of control

Q: And the T/C [1]?
A: 126 % of control

Q: And the T/C [2]?
A: 149 % of control
